Converted amounts (≈) assume the structure as drawn.
Legend:
Format in all cases: functional
[1] = system: Candida albicans; assay: Antifungal activity against Candida albicans ATCC […] assessed as reduction in fungal growth incubated for 48 hrs by broth microdilution assay
How it was run: (§1)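 Yeasts were tested by twofold broth microdilution in Mueller-Hinton broth with 2% glucose at final concentrations of 0.98–1000 µg/mL. Inoculum was prepared from 0.5 McFarland suspensions in 0.85% NaCl, giving a final 5 × 10⁴ CFU/mL. Incubation was 48 h at 30 °C. MIC was the lowest concentration visually showing complete growth inhibition. Controls: 10% DMSO (final), growth and sterility. Triplicate.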

[2] = system: Candida albicans; assay: Antifungal activity against Candida albicans ATCC 2091 assessed as reduction in fungal growth incubated for 48 hrs by broth microdilution assay; how it was run: as §1
[3] = system: Pseudomonas aeruginosa; assay: Antibacterial activity against Pseudomonas aeruginosa ATCC 9027 assessed as reduction in bacterial growth incubated for 24 hrs by broth microdilution assay
How it was run: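 Twofold serial broth microdilution in Mueller-Hinton broth, supplemented with 5% lysed sheep blood for fastidious species. […]. Inoculum was set to 0.5 McFarland in 0.85% NaCl, giving a final 1.5 × 10⁶ CFU/mL. Plates were incubated 24 h at 35 °C. MIC was read visually as the lowest concentration with complete growth inhibition. Controls: 10% DMSO (final), growth and sterility. Triplicate.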

Compound | MIC [1] [mg/L] | MIC [2] [mg/L] | MIC [3] [mg/L]
OC(Cn1cncn1)(Cn1cncn1)c1ccc(F)cc1F [FLUCONAZOLE] | 0.98 (≈ 3.2 µM) | 0.25 (≈ 0.816 µM) | 
O=C(O)c1cn(C2CC2)c2cc(N3CCNCC3)c(F)cc2c1=O [CIPROFLOXACIN] |  |  | 0.49 (≈ 1.48 µM)

From ChEMBL document CHEMBL4765265, “4-Substituted picolinohydrazonamides as a new class of potential antitubercular agents” (Eur J Med Chem, 2020)
